Patent publication US12258583B2, “Embryonic erythroblast-containing cell population and method for producing same, cell culture composition, and compound test method” (SUMITOMO CHEMICAL COMPANY, LIMITED, priority 2018, dated 2025)
For at least one compound, name, drawing or mass did not settle the structure.

How the values were obtained:
[1] = test system: embryonic erythroblast-containing cell population produced from human iPS cells; experiment: Compound test using embryonic erythroblast-containing cell population produced from human iPS cells (heme, PPIX by LC-MS, viable cell count, viability); assay type: cell-based; details: DHA 0.5 or 1 μM, SA 10 or 30 μM, Day 18 (Day 8 after start of step (C)), ng/10^6 cells
Method: The procedure illustrated in FIG. 11 was used to conduct a compound test using an embryonic erythroblast-containing cell population produced from human iPS cells. Differentiation of human iPS cells was induced by substantially the same procedure as in Example 1 to produce an embryonic erythroblast-containing cell population at Day 10 after the start of suspension culture (step (A)) (Step (A) and Step (B)). The cells were centrifuged for 5 min at 1000 rpm in a centrifuge (CF8DL; manufactured by Koki Holdings Co., Ltd.) to remove the supernatant. Next, STEMdiff+B medium was added to the precipitate. Subsequently, the cells were suspended and seeded at 2×10^5 cells in 1.5 mL of medium per well of a […] 6-well plate (manufactured by Corning, Inc.). Then, suspension culture was started (step (C) was started). […]
At Day 18 (Day 8 after the start of step (C)) after the start of suspension culture (step (A)), the resulting cell population-containing medium was collected from the 6-well plate. […] The concentration of heme or protoporphyrin IX (hereinafter, referred to as “PPIX”) included in this cell pellet was quantified using liquid chromatography-mass spectrometry (LC-MS) (step (D)). […] In addition, the number of cells collected after the culture was counted to determine viability. […]

[2] = test system: embryonic erythroblast-containing cell population produced from rat ES cells; experiment: Compound test using embryonic erythroblast-containing cell population produced from rat ES cells (heme by LC-MS); assay type: cell-based

In the case of C[C@H]1[C@@H](O)O[C@@H]2O[C@@]3(C)CC[C@H]4[C@H](C)CC[C@@H]1[C@@]24OO3 [DHA, dihydroartemisinin], the “heme concentration compared to a solvent control” value ([1]; FIG. 12A) is reported as “decrease”, the “PPIX (protoporphyrin IX) concentration” value ([1]; FIG. 12B) is reported as “increased” and the “heme concentration compared to a solvent control” value ([2]; DHA 0.5 μM, Day 12 (Day 4 after start of step (C)), LC-MS, ng/10^6 cells, FIG. 14) is reported as “decrease”. For the same molecule, the “effects on the heme synthesis inhibition, humans versus rats” value ([2]; comparison of Examples 3 and 4, human and rat pluripotent stem cell-derived embryonic erythroblasts) was “almost comparable”.
